Assay results taken from PubChem BioAssay AID686970 (National Center for Advancing Translational Sciences (NCATS), 2013).
The entries are a selection whose mix differs from that of the whole data set. Inconclusive results are not listed. Calls of active or inactive are those of the source. Calls follow the shape of the dose curve; as a rule, active = well fitted cell-killing curve with a large enough effect; inconclusive = small, poorly fitted or top-dose-only effect, or effect the other way; inactive = flat fitted curve, though single readings scatter.

Assay: qHTS for induction of synthetic lethality in tumor cells producing 2HG: qHTS for the HT-1080-NT fibrosarcoma cell line; also: nearly all actives have a fitted effect of over 55% in size
Conditions: HT-1080-NT fibrosarcoma viability, CellTiter-Glo ATP luminescence, 48 h
Excerpt: Unbiased genomic sequencing for 22 glioma genomes found recurrent mutation of IDH1 on chromosome 2q33, a gene encoding the cytosolic isoform of IDH1 associated with the tricarboxylic acid cycle (TCA) that catalyzes the oxidative decarboxylation of isocitrate, yielding alpha-ketoglutarate and CO2 via NADP+ to NADPH conversion. Subsequent studies confirmed the recurrent IDH mutations in up to 70% of secondary gliomas and in 10% of AML cases. In addition, the somatic mutation of cancer-associated IDH1 is a point mutation resulting in various amino-acid substituents at Arginine132 (IDH1 R132), a key residue found in the enzyme's active site that when mutated, results in the loss-of-function in metabolizing isocitrate but confers a gain-of-function to produce the oncometabolite 2-hydroxyglutarate (2HG). This in effect defines IDH1 as an oncogene and provides an extraordinary opportunity to discover chemical probes against mutant IDH1 that may translate into much needed new therapies for glioma and AML patients.
This assay aims to perform a synthetic lethal screen for chemical probes specific for 2HG-producing tumor cells using matched paired cell lines (1) HT-1080-NT fibrosarcoma cell line that overproduces 2HG and (2) HT-1080-IDH1KD cell line which has IDH1 expression knocked-down. Desirable compounds are toxic to the NT fibrosarcoma cells but not to the IDH1KD cell line. […]
Suspensions of trypsinized HT-1080-NT cells were dispensed into white, tissue culture-treated, solid 1536-well plates at 5uL/well (750 cells/well final concentration) in RPMI medium supplemented with 5% FBS. […] The plates were measured on a PerkinElmer ViewLux plate reader for luminescent signal (clear filter, 1 sec exp). […]
Concentration-response curves were fitted to the signals arising from the resulting luminescence. The concentration-effect curves were then classified based on curve quality (r2), response magnitude and degree of measured activity, and compounds were subsequently categorized based on their curve class.
Potency is read from the fitted curve at half-maximal effect.

SMILES	Potency
COc1c(O)cc2c(c1OC)-c1ccc(SC)c(=O)cc1C(NC(C)=O)CC2 (stereo not drawn)	active: 20.6 nM
COc1cc2c(c(OC)c1OC)-c1ccc(SC)c(=O)cc1C(NC(C)=O)CC2 (stereo not drawn)	active: 9.2 nM
COc1c(O)cc2c(c1OC)-c1ccc(OC)c(=O)cc1C(NC(C)=O)CC2 (stereo not drawn)	active: 14.6 nM
